Assay results taken from PubChem BioAssay AID212 (DTP/NCI, 2004).
The list shows only some results of the screen, not a fair sample: it gathers tests that were run many times, whatever their T/C, doses with no T/C, and many T/C values between a quarter and a half above the control. Further doses and runs are listed elsewhere. T/C gives the treated animals as a percentage of the vehicle group. Schedule codes are those of the source, read here as Q, the interval in days (D) or hours (H), X, the number of doses. Some T/C values carry the count of animals alive at the toxicity check (mostly the fifth day); where none is given, no animal had died by that day. Some entries give survivors of the animals treated and no T/C: the source files T/C as zero there, which appears to mark a toxic dose or a test without result, not a measured value. Survivors were counted at the toxicity check, usually on the fifth day, unless a day is given; later deaths do not show. Some doses were run more than once; the results are listed from low to high. Where survival is the endpoint, this PubChem deposit counts one and a half times the control or more as active, and values a quarter to a half above the control carry no call in these data; other NCI protocols may use other cut-offs.

Test system: BDF1 mice, colon carcinoma 38 sc, T/C %
Assay: NCI In Vivo Anticancer Drug Screen. Data for tumor model Colon Carcinoma 38 (subcutaneous) in B6D2F1 (BDF1) mice
Outline: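 Compound antitumor activity was assessed in mice carrying transplantable tumors. Survival or tumor size was recorded, and each value is the treated-group measurement divided by that of the vehicle-treated control group.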

**Q.** Which results are given for CCN(CC)CC[n+]1ccc2c(C)c3[nH]c4ccc(O)cc4c3c(C)c2c1?
**A.** survivor count (T/C endpoint: median tumor weight (est.), dose: 100.0 mg/kg/injection, schedule: Q07DX002 (ip), vehicle: saline, higher T/C = larger tumour): 0 of 10 on day 20 and 3 of 10 on day 20; survivor count (T/C endpoint: median tumor weight (est.), dose: 100.0 mg/kg/injection, schedule: Q07DX002 (ip), vehicle: suspension in saline, higher T/C = larger tumour): 0 of 10 on day 20

**Q.** COC(=O)C(F)C(Br)C(=O)OC (stereo not given) was tested. Which T/C (T/C endpoint: median tumor weight (est.), dose: 12.5 mg/kg/injection, schedule: Q07DX002 (ip), vehicle: saline with Tween-80, evaluated on day 20, higher T/C = larger tumour) did it give?
**A.** 134 % of control [9 of 10 alive]

**Q.** What does the source list for CS(=O)(=O)Nc1ccc(C(=O)CCN2CCCCCC2)cc1?
**A.** survivor count (T/C endpoint: median tumor weight (est.), dose: 400.0 mg/kg/injection, schedule: Q07DX002 (ip), vehicle: saline with Tween-80, higher T/C = larger tumour): 0 of 10 on day 20; survivor count (T/C endpoint: median tumor weight (est.), dose: 800.0 mg/kg/injection, schedule: Q07DX002 (ip), vehicle: saline with Tween-80, higher T/C = larger tumour): 0 of 10 on day 20

**Q.** How did the survivor count (T/C endpoint: median tumor weight (est.), dose: 200.0 mg/kg/injection, schedule: Q07DX002 (ip), vehicle: saline with Tween-80, higher T/C = larger tumour) turn out when N#Cc1c(N)[nH]c2ccc(Sc3ccccc3)cc12 was run?
**A.** 6 of 10 on day 20

**Q.** For O=C[C@@H](CO)O[C@H](C=O)c1c[nH]c(=O)[nH]c1=O, which T/C (T/C endpoint: median tumor weight (est.), dose: 25.0 mg/kg/injection, schedule: Q07DX002 (ip), vehicle: saline, evaluated on day 20, higher T/C = larger tumour) is on record?
**A.** 142 % of control

**Q.** What does the source list for Nc1nc(N)c2cc(S(=O)(=O)c3ccccc3)ccc2n1?
**A.** survivor count (T/C endpoint: median survival time, dose: 57.0 mg/kg/injection, schedule: Q06HX012 (oral), vehicle: saline with Tween-80, higher T/C = longer survival): 3 of 10 on day 70; survivor count (T/C endpoint: median survival time, dose: 86.0 mg/kg/injection, schedule: Q06HX012 (oral), vehicle: saline with Tween-80, higher T/C = longer survival): 0 of 10 on day 70; survivor count (T/C endpoint: median survival time, dose: 130.0 mg/kg/injection, schedule: Q06HX012 (oral), vehicle: saline with Tween-80, higher T/C = longer survival): 0 of 10 on day 70; survivor count (T/C endpoint: median survival time, dose: 130.0 mg/kg/injection, schedule: Q06HX014 (ip), vehicle: saline with Tween-80, higher T/C = longer survival): 2 of 10 on day 70; survivor count (T/C endpoint: median survival time, dose: 195.0 mg/kg/injection, schedule: Q06HX012 (oral), vehicle: saline with Tween-80, higher T/C = longer survival): 0 of 10 on day 70; survivor count (T/C endpoint: median survival time, dose: 195.0 mg/kg/injection, schedule: Q06HX014 (ip), vehicle: saline with Tween-80, higher T/C = longer survival): 0 of 10 on day 70; survivor count (T/C endpoint: median survival time, dose: 292.0 mg/kg/injection, schedule: Q06HX012 (oral), vehicle: saline with Tween-80, higher T/C = longer survival): 0 of 5 on day 70; survivor count (T/C endpoint: median survival time, dose: 292.0 mg/kg/injection, schedule: Q06HX014 (ip), vehicle: saline with Tween-80, higher T/C = longer survival): 0 of 5 on day 70; T/C (T/C endpoint: median survival time, dose: 780.0 mg/kg/injection, schedule: Q07DX002 (ip), vehicle: saline with Tween-80, higher T/C = longer survival): 146 % of control [6 of 9 alive on day 70]; survivor count (T/C endpoint: median survival time, dose: 1170.0 mg/kg/injection, schedule: Q07DX002 (ip), vehicle: saline with Tween-80, higher T/C = longer survival): 2 of 10 on day 70; survivor count (T/C endpoint: median survival time, dose: 1750.0 mg/kg/injection, schedule: Q07DX002 (ip), vehicle: saline with Tween-80, higher T/C = longer survival): 0 of 10 on day 70; survivor count (T/C endpoint: median survival time, dose: 2600.0 mg/kg/injection, schedule: Q07DX002 (ip), vehicle: saline with Tween-80, higher T/C = longer survival): 0 of 5 on day 70

**Q.** COc1cccc2c1C(=O)c1c(O)c3c(c(O)c1C2=O)C[C@@](O)(C(C)=O)C[C@@H]3OC1CC(N)C(O)C(C)O1 (stereo not given in full) was tested. Which survivor count (T/C endpoint: median tumor weight (est.), dose: 4.0 mg/kg/injection, schedule: Q07DX002 (ip), vehicle: water, higher T/C = larger tumour) did it give?
**A.** 6 of 10 on day 20

**Q.** What about the survivor count (T/C endpoint: median tumor weight (est.), dose: 8.0 mg/kg/injection, schedule: Q07DX002 (ip), vehicle: water, higher T/C = larger tumour) of the same compound?
**A.** 1 of 10 on day 20

**Q.** And the survivor count (T/C endpoint: median tumor weight (est.), dose: 8.0 mg/kg/injection, schedule: Q07DX003 (ip), vehicle: saline, higher T/C = larger tumour)?
**A.** 1 of 9

**Q.** And the survivor count (T/C endpoint: median tumor weight (est.), dose: 16.0 mg/kg/injection, schedule: Q07DX002 (ip), vehicle: water, higher T/C = larger tumour)?
**A.** 0 of 10 on day 20

**Q.** What about the survivor count (T/C endpoint: median tumor weight (est.), dose: 32.0 mg/kg/injection, schedule: Q07DX002 (ip), vehicle: water, higher T/C = larger tumour) of the same compound?
**A.** 0 of 10 on day 20

**Q.** What does the source list for CC1(C)N=C(N)N=C(N)N1c1ccc(F)c(C(F)(F)F)c1?
**A.** T/C (T/C endpoint: median tumor weight (est.), dose: 3.12 mg/kg/injection, schedule: Q07DX002 (ip), vehicle: saline, evaluated on day 20, higher T/C = larger tumour): 133 % of control; survivor count (T/C endpoint: median tumor weight (est.), dose: 6.25 mg/kg/injection, schedule: Q07DX003 (ip), vehicle: suspension in saline, higher T/C = larger tumour): 6 of 10 on day 20; survivor count (T/C endpoint: median tumor weight (est.), dose: 200.0 mg/kg/injection, schedule: Q07DX003 (ip), vehicle: suspension in saline, higher T/C = larger tumour): 0 of 10 on day 20

**Q.** How did the survivor count (T/C endpoint: median tumor weight (est.), dose: 200.0 mg/kg/injection, schedule: Q07DX002 (ip), vehicle: Klucel (hydroxypropylcellulose) (HPC), higher T/C = larger tumour) turn out when OC1CCCC2CCCNC12 (stereo not given) was run?
**A.** 1 of 10 on day 20

**Q.** For CC1(C)COCN1COC1CCCCC1, which survivor count (T/C endpoint: median tumor weight (est.), dose: 400.0 mg/kg/injection, schedule: Q07DX002 (ip), vehicle: suspension in saline, higher T/C = larger tumour) is on record?
**A.** 0 of 10 on day 20

**Q.** And the survivor count (T/C endpoint: median tumor weight (est.), dose: 800.0 mg/kg/injection, schedule: Q07DX002 (ip), vehicle: suspension in saline, higher T/C = larger tumour)?
**A.** 0 of 10 on day 20
